PubChem BioAssay AID1259405 | NCATS, 2018

Assay: 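Mouse-designed siRNAs used to find CHO productivity engineering targets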 (primary screen)
System: Chinese hamster CHO-K1 ovary cells with stable secreted eGFP expression
Reagent: single siRNA against mouse genes, 0.8 pmol siRNA per well (2 µl of 400 nM stock)
Duration: 3 days
Measured: 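Per-well intracellular GFP measured by laser scanning cytometry, plus viability from ATP luminescence, each relative to plate median of non-targeting control wells, in %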
Scale: GFP, % of control: higher = more GFP per well, higher productivity; viability (ATP), % of control: higher = more viable cells (more ATP)
Rule for the call: 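a knock-down is called active if GFP reaches 120% or more of non-targeting control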
Here is an unselected part of about 50,000 reagents tested. About 4,000 of all reagents (8%) were called active. 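Mouse siRNA library applied to hamster cells; one well for each siRNA.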 A number with no mark means an inactive call. Reagents against one gene are numbered here.

Target gene | siRNA no. | GFP, % of control | viability (ATP), % of control
Gria2 (glutamate receptor, ionotropic, AMPA2 (alpha 2)) | 1 | 97.6 | 84.3
Gria2 (glutamate receptor, ionotropic, AMPA2 (alpha 2)) | 2 | 32.8 | 42.4
Gria2 (glutamate receptor, ionotropic, AMPA2 (alpha 2)) | 3 | 46 | 61.3
Hnf4a (hepatic nuclear factor 4, alpha) | 1 | 95.3 | 99.7
Hnf4a (hepatic nuclear factor 4, alpha) | 2 | 96.9 | 77.2
Nanos1 (nanos C2HC-type zinc finger 1) | 1 | 81 | 98.3
Nanos1 (nanos C2HC-type zinc finger 1) | 2 | 80.4 | 91
Nanos1 (nanos C2HC-type zinc finger 1) | 3 | 67.5 | 76.9
Fibin (fin bud initiation factor homolog (zebrafish)) | 1 | 115 | 108
Fibin (fin bud initiation factor homolog (zebrafish)) | 2 | 89.1 | 77.9
Fibin (fin bud initiation factor homolog (zebrafish)) | 3 | 176 (active) | 61.4
Fibin (fin bud initiation factor homolog (zebrafish)) | 4 | 86.5 | 86.9
Fibin (fin bud initiation factor homolog (zebrafish)) | 5 | 89.1 | 77.9
Fibin (fin bud initiation factor homolog (zebrafish)) | 6 | 64.5 | 86.7
Dhfr (dihydrofolate reductase) | 1 | 63.6 | 112
Dhfr (dihydrofolate reductase) | 2 | 96.9 | 90.6
Or52a33 (olfactory receptor family 52 subfamily A member 33) | 1 | 96.3 | 51.6
Or52a33 (olfactory receptor family 52 subfamily A member 33) | 2 | 69.1 | 89.5
Or52a33 (olfactory receptor family 52 subfamily A member 33) | 3 | 56 | 91.4
Gimap3 (GTPase, IMAP family member 3) | 1 | 62.6 | 81.2
Gimap3 (GTPase, IMAP family member 3) | 2 | 33.3 | 61.2
Gimap3 (GTPase, IMAP family member 3) | 3 | 33.9 | 32.4
Hmgn1 (high mobility group nucleosomal binding domain 1) | 1 | 91.6 | 73.5
Hmgn1 (high mobility group nucleosomal binding domain 1) | 2 | 75.7 | 82.5
Hmgn1 (high mobility group nucleosomal binding domain 1) | 3 | 41.7 | 58.5
Or9q2 (olfactory receptor family 9 subfamily Q member 2) | 1 | 85 | 71.2
Or9q2 (olfactory receptor family 9 subfamily Q member 2) | 2 | 86.6 | 85.2
Or9q2 (olfactory receptor family 9 subfamily Q member 2) | 3 | 85.8 | 83.7
Mbp (myelin basic protein) | 1 | 38.1 | 33.9
Mbp (myelin basic protein) | 2 | 128 (active) | 76.4
Mbp (myelin basic protein) | 3 | 64 | 41.9
Fgd1 (FYVE, RhoGEF and PH domain containing 1) | 1 | 77.6 | 108
Fgd1 (FYVE, RhoGEF and PH domain containing 1) | 2 | 91.6 | 55.7
Fgd1 (FYVE, RhoGEF and PH domain containing 1) | 3 | 120 | 82.7
Or5b21 (olfactory receptor family 5 subfamily B member 21) | 1 | 99.1 | 41.3
Or5b21 (olfactory receptor family 5 subfamily B member 21) | 2 | 85.7 | 93.7
Or5b21 (olfactory receptor family 5 subfamily B member 21) | 3 | 97.6 | 58.9
Mogs (mannosyl-oligosaccharide glucosidase) | 1 | 92.9 | 90.7
Mogs (mannosyl-oligosaccharide glucosidase) | 2 | 119 | 84.7
Mogs (mannosyl-oligosaccharide glucosidase) | 3 | 80.5 | 104
Tnp1 (transition protein 1) | 1 | 91.9 | 114
Tnp1 (transition protein 1) | 2 | 87 | 122
Tnp1 (transition protein 1) | 3 | 109 | 125
Slc7a8 | 1 | 78.3 | 69
Slc7a8 | 2 | 121 (active) | 119
Slc7a8 | 3 | 87.6 | 75.8
St6galnac6 | 1 | 95.8 | 87.1
St6galnac6 | 2 | 150 (active) | 149
St6galnac6 | 3 | 94.5 | 88.4
Or5b124 (olfactory receptor family 5 subfamily B member 124) | 1 | 94.4 | 63.9
Or5b124 (olfactory receptor family 5 subfamily B member 124) | 2 | 93.1 | 89.3
Or5b124 (olfactory receptor family 5 subfamily B member 124) | 3 | 111 | 127
Krt71 (keratin 71) | 1 | 57.9 | 80.2
Krt71 (keratin 71) | 2 | 89.2 | 78.8
Krt71 (keratin 71) | 3 | 175 (active) | 80.2
Draxin (dorsal inhibitory axon guidance protein) | 1 | 110 | 99.1
Draxin (dorsal inhibitory axon guidance protein) | 2 | 86.8 | 47.8
Draxin (dorsal inhibitory axon guidance protein) | 3 | 65.4 | 60.1
Trpd52l3 (tumor protein D52-like 3) | 1 | 103 | 103
Trpd52l3 (tumor protein D52-like 3) | 2 | 81.5 | 83.5
Trpd52l3 (tumor protein D52-like 3) | 3 | 71.3 | 97.5
Olr1 (oxidized low density lipoprotein (lectin-like) receptor 1) | 1 | 133 (active) | 133
Olr1 (oxidized low density lipoprotein (lectin-like) receptor 1) | 2 | 97.6 | 84
Olr1 (oxidized low density lipoprotein (lectin-like) receptor 1) | 3 | 88.8 | 68.4
Slc25a40 | 1 | 122 (active) | 142
Slc25a40 | 2 | 61.1 | 45.5
Slc25a40 | 3 | 50.9 | 58.9
Yipf6 (Yip1 domain family, member 6) | 1 | 90.1 | 91
Yipf6 (Yip1 domain family, member 6) | 2 | 73.2 | 39.5
Yipf6 (Yip1 domain family, member 6) | 3 | 80.1 | 66.6
Drc8 (dynein regulatory complex subunit 8) | 1 | 85.2 | 64.2
Drc8 (dynein regulatory complex subunit 8) | 2 | 116 | 58.1
Drc8 (dynein regulatory complex subunit 8) | 3 | 59.6 | 59.7
Abhd14b (abhydrolase domain containing 14b) | 1 | 119 | 96
Abhd14b (abhydrolase domain containing 14b) | 2 | 72.5 | 60.1
Abhd14b (abhydrolase domain containing 14b) | 3 | 79.3 | 89
Nucks1 | 1 | 86.1 | 67.4
Nucks1 | 2 | 0 | 182
Nucks1 | 3 | 128 (active) | 127
Mmp2 (matrix metallopeptidase 2) | 1 | 67.2 | 101
Mmp2 (matrix metallopeptidase 2) | 2 | 55.8 | 67.1
Lin37 (lin-37 DREAM MuvB core complex component) | 1 | 87.7 | 73.4
Lin37 (lin-37 DREAM MuvB core complex component) | 2 | 123 (active) | 79.5
Lin37 (lin-37 DREAM MuvB core complex component) | 3 | 86.4 | 73.2

12 entries already listed, sorted by “GFP, % of control”, lowest first:
Target gene | siRNA no. | GFP, % of control | viability (ATP), % of control
Nucks1 | 2 | 0 | 182
Slc25a40 | 3 | 50.9 | 58.9
Drc8 (dynein regulatory complex subunit 8) | 3 | 59.6 | 59.7
Abhd14b (abhydrolase domain containing 14b) | 2 | 72.5 | 60.1
Yipf6 (Yip1 domain family, member 6) | 2 | 73.2 | 39.5
Abhd14b (abhydrolase domain containing 14b) | 3 | 79.3 | 89
Yipf6 (Yip1 domain family, member 6) | 3 | 80.1 | 66.6
Drc8 (dynein regulatory complex subunit 8) | 1 | 85.2 | 64.2
Nucks1 | 1 | 86.1 | 67.4
Yipf6 (Yip1 domain family, member 6) | 1 | 90.1 | 91
Drc8 (dynein regulatory complex subunit 8) | 2 | 116 | 58.1
Abhd14b (abhydrolase domain containing 14b) | 1 | 119 | 96
